Laboratory results taken from patent US20060018872A1, “Poly(lactic acid) copolymer hydrogels and related methods of drug delivery” (priority 2004, published 2006).
Some results were stated once for a whole list of compounds, not compound by compound.

Experiment: In-vitro drug release from 5 wt % polymer solution through dialysis membrane, UV detection
Type: physicochemical
Conditions: all polymers studied

SMILES | period of slow and continuous release from PLA-PEO-PLA polymer solutions [days]
CC1=C(CC(=O)O)c2cc(F)ccc2/C1=C\c1ccc([S+](C)[O-])cc1 (centres unmarked) [sulindac] | 4 to 20
CCCCNc1ccc(C(=O)OCCN(C)C)cc1 [tetracaine] | 4 to 20
